The text below walks through data of paper PMC4028990.

Sequences of proteins named here, by UniProt entry; tags and fusion partners are left off. A change or cut given only in a name is not applied to a line headed by its entry. A line that says so, or that is headed by a name, gives the form on record, which may keep a tag or linker.
UniProt Q969H0: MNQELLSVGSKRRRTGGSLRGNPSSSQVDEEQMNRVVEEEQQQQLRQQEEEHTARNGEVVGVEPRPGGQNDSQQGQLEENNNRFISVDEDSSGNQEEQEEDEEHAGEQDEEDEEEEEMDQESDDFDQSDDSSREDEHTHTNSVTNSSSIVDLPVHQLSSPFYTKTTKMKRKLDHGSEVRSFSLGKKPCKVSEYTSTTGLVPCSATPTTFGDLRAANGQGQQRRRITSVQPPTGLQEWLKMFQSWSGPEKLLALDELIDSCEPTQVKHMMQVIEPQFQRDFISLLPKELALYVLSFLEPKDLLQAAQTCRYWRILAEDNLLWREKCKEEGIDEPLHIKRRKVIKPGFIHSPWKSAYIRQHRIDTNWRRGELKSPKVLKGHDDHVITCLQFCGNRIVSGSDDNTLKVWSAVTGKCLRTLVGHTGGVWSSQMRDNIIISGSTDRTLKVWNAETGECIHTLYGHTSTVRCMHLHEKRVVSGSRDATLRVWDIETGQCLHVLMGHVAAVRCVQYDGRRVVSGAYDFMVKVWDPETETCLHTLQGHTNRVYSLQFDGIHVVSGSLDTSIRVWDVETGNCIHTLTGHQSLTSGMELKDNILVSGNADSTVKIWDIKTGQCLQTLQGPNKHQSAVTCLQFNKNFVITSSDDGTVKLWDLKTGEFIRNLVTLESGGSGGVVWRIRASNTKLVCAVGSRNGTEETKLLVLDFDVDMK
FLAG-FBXW7γ (Q969H0-4, form named): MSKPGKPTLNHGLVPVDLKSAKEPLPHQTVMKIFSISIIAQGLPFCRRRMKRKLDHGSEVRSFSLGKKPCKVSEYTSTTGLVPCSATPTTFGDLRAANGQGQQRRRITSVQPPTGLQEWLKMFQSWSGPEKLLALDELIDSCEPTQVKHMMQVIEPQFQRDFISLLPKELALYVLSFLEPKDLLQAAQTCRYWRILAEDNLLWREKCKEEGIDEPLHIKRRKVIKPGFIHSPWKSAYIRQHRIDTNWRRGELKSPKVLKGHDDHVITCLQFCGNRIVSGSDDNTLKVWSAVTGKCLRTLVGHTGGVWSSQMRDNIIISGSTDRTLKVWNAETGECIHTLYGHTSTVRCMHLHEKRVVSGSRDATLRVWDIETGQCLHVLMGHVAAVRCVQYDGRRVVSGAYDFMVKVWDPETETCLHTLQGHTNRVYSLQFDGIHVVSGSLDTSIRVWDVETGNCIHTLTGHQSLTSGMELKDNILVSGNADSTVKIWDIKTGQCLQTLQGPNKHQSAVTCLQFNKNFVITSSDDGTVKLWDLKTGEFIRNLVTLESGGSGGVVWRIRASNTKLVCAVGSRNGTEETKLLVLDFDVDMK

No constants are given. Whether binding was seen depends on the method and setting. Binding seen in cells or lysates may run through a third protein. Some results given as binding are weak or reduced against the parent protein; the word gives no strength. Sequences can lack the tags named with a protein.

Experiment in all cases: co-IP; HEK-293 cells co-transfected; lysis in NETN buffer (50 mM Tris-HCl pH 7.5, 150 mM NaCl, 1 mM EDTA, 1% Nonidet P-40); anti-myc or anti-FLAG antibody on protein G Dynabeads, 2 hr at 4°C; immunoblot with the reciprocal antibody
A general note: In western blotting, separated proteins are transferred to a membrane and probed.

For assay [1], the target named is T1, myc-UBE2QL1 (human) (UniProt A1L167).
T1 sequence: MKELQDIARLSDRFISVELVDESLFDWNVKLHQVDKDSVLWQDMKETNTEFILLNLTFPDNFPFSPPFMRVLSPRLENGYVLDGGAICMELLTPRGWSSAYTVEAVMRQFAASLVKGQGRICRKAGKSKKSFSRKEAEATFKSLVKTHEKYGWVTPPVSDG

For assay [2], the target named is FLAG-FBXW7γ (UniProt Q969H0).
The target of assay [3] is FLAG-FBXW7α (UniProt Q969H0).

On to “FLAG-FBXW7α (from UniProt Q969H0-1 1-707)”, for which the binding entry in assay [1] is on record as “binds”.
Still for that read-out and setting: for “FLAG-FBXW7γ (from UniProt Q969H0-4 1-589)” the value was “binds”.

B1: myc-UBE2QL1 (enzyme, UniProt A1L167 1-161)
chain: T1 sequence
With B1, the binding entry in assay [2] and in assay [3] was “binds” throughout.
